Assay results as given in paper PMC6177200, “EpCAM ectodomain EpEX is a ligand of EGFR that counteracts EGF-mediated epithelial-mesenchymal transition through modulation of phospho-ERK1/2 in head and neck cancers” (PLoS Biology, 2018).
No constants are given. Whether binding was seen depends on the method and setting. For some of these results: In cells and extracts the contact can be indirect. Some results given as binding are weak or reduced against the parent protein; the word gives no strength. For some of these results: Sequences can lack the tags named with a protein. Each block holds one molecule with its values, some of them ahead of it.

Legend:
[1] = molecular target: T1, EpEX-Fc (extracellular domain of EpCAM fused to the constant region of human immunoglobulin 1) (human) (UniProt P16422); assay: pull-down; EpEX-Fc or Fc (50 μg) incubated with whole-cell lysates of FaDu and Cal27 overnight at 4 °C, immobilised on protein A agarose beads; washed in 25 mM tris, 150 mM NaCl, pH 7.2; immunoblot with Fc- and EGFR-specific antibodies; only the target purified
T1 sequence (chain, N-glycosylated): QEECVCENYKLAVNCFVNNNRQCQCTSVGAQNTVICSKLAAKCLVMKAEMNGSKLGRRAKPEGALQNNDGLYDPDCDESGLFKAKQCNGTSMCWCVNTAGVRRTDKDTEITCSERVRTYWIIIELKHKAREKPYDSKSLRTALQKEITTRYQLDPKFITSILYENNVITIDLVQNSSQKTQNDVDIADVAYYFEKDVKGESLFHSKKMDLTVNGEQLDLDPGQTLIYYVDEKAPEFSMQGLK

[2] = molecular target: T2, epithelial cell adhesion molecule (EpCAM), endogenous (human (endogenous in FaDu, Cal27, HCT8)) (UniProt P16422); assay: co-IP; bidirectional co-immunoprecipitation of endogenous proteins from precleared whole-cell lysates of FaDu, Cal27 and HCT8 cells; EGFR- or EpCAM-specific antibodies (10 μg) overnight at 4 °C, protein A agarose beads; washed in 25 mM tris, 150 mM NaCl, pH 7.2; immunoblot
T2 sequence: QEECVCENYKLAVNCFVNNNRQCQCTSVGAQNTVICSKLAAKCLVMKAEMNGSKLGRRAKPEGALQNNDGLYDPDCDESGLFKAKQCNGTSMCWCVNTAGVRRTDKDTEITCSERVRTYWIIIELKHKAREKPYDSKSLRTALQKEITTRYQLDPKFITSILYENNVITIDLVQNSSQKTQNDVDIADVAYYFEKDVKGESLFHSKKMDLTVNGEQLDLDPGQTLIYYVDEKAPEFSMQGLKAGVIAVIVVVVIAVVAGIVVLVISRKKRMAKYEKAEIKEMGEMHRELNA

[3] = molecular target: epidermal growth factor receptor (EGFR), endogenous full-length (human (endogenous in FaDu, Cal27, HCT8)) (UniProt P00533); assay: as above
[4] = molecular target: T3, EpEX shed into cell culture supernatants (soluble extracellular domain of EpCAM, endogenous) (human (endogenous in Cal27, Kyse30, FaDu, HCT8)), P16422; assay: native gel or EMSA; supernatants of Cal27, Kyse30, FaDu and HCT8 cells immunoprecipitated with EpEX-specific antibodies, separated under nonreducing native conditions against reducing conditions; EpEX detected with specific antibodies; conditions: remark: other sources report otherwise
T3 chain: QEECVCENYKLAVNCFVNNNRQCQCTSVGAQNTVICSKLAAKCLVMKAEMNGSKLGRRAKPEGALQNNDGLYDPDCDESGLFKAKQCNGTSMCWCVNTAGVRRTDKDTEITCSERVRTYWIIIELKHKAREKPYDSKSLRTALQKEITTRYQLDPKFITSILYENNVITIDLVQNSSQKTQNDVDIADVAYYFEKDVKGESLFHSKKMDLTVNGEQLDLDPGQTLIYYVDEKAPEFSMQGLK

binding [1]: binds
binding [2]: binds
Molecule: epidermal growth factor receptor (EGFR), endogenous full-length (from UniProt P00533 25-1210)

binding [3]: binds
B1: epithelial cell adhesion molecule (EpCAM), endogenous (protein, UniProt P16422 24-314)
chain: QEECVCENYKLAVNCFVNNNRQCQCTSVGAQNTVICSKLAAKCLVMKAEMNGSKLGRRAKPEGALQNNDGLYDPDCDESGLFKAKQCNGTSMCWCVNTAGVRRTDKDTEITCSERVRTYWIIIELKHKAREKPYDSKSLRTALQKEITTRYQLDPKFITSILYENNVITIDLVQNSSQKTQNDVDIADVAYYFEKDVKGESLFHSKKMDLTVNGEQLDLDPGQTLIYYVDEKAPEFSMQGLKAGVIAVIVVVVIAVVAGIVVLVISRKKRMAKYEKAEIKEMGEMHRELNA

binding [4]: binds
B2: EpEX shed into cell culture supernatants (soluble extracellular domain of EpCAM, endogenous), P16422 24-265 (domain or fragment)
chain: QEECVCENYKLAVNCFVNNNRQCQCTSVGAQNTVICSKLAAKCLVMKAEMNGSKLGRRAKPEGALQNNDGLYDPDCDESGLFKAKQCNGTSMCWCVNTAGVRRTDKDTEITCSERVRTYWIIIELKHKAREKPYDSKSLRTALQKEITTRYQLDPKFITSILYENNVITIDLVQNSSQKTQNDVDIADVAYYFEKDVKGESLFHSKKMDLTVNGEQLDLDPGQTLIYYVDEKAPEFSMQGLK
